From PubChem BioAssay AID248 (DTP/NCI, 2004)
The list is a part of this screen's results and no random one: it is rich in T/C values a quarter to a half above the control, in often repeated tests (any T/C) and in doses without a T/C. Other doses and runs of a compound stand elsewhere. T/C gives the treated animals as a percentage of the vehicle group. Some doses have a count of surviving animals in place of a T/C: the source holds a T/C of zero for them, seemingly a mark for toxic or unscored doses. Some survivor counts are full or nearly so, which does not show that the dose was tolerated: survival well below the control is almost never listed, so the zero probably covers shortened survival too. Survivors were counted at the toxicity check, usually on the fifth day, unless a day is given; later deaths do not show. Schedule codes are those of the source, taken here to give the interval after Q, in days (D) or hours (H), and the number of doses after X. Some schedules carry Z or #; the key to these is not given. For survival time, the PubChem record calls one and a half times the control and up active, and a quarter to a half above the control has no call in these data; cut-offs in other NCI protocols can differ. Some T/C values are followed by the survivors on the day toxicity was checked, most often the fifth; where none is given, no animal had died by that day. Some doses were run more than once; the results are listed from low to high.

System: L1210 leukemia ip in BDF1 mice, survival T/C
Assay: NCI In Vivo Anticancer Drug Screen. Data for tumor model L1210 Leukemia (intraperitoneal) in B6D2F1 (BDF1) mice
Settings: T/C endpoint: mean survival time, higher T/C = longer survival
[1] = dose: 400.0 mg/kg/injection, schedule: Q04DX003 (ip), vehicle: saline
[2] = dose: 100.0 mg/kg/injection, schedule: Q04DX003 (ip), vehicle: saline
[3] = dose: 200.0 mg/kg/injection, schedule: Q04DX003 (ip), vehicle: saline
[4] = dose: 200.0 mg/kg/injection, schedule: Q04DX003 (ip), vehicle: Klucel (hydroxypropylcellulose) (HPC)
[5] = dose: 400.0 mg/kg/injection, schedule: Q04DX003 (ip), vehicle: Klucel (hydroxypropylcellulose) (HPC)
[6] = dose: 100.0 mg/kg/injection, schedule: Q04DX003 (ip), vehicle: saline with Tween-80
[7] = dose: 200.0 mg/kg/injection, schedule: Q04DX003 (ip), vehicle: saline with Tween-80
[8] = dose: 400.0 mg/kg/injection, schedule: Q04DX003 (ip), vehicle: saline with Tween-80
[9] = dose: 400.0 mg/kg/injection, schedule: Q01DX001 (ip), vehicle: saline
[10] = dose: 300.0 mg/kg/injection, schedule: Q01DX001 (ip), vehicle: saline
[11] = dose: 150.0 mg/kg/injection, schedule: Q01DX001 (ip), vehicle: acetone
[12] = dose: 300.0 mg/kg/injection, schedule: Q01DX001 (ip), vehicle: acetone

`O=C(Nc1ccc(C2=NCCN2)cc1)c1ccc(NC(=O)c2ccc(C3=NCCN3)cc2)cc1` was tested, and the T/C (dose: 15.0 mg/kg/injection, schedule: Q01DX009 (ip), vehicle: saline) was 142 % of control, the T/C (dose: 15.0 mg/kg/injection, schedule: Q01DX Z (ip), vehicle: carboxymethylcellulose (CMC)) was 146 % of control and the T/C (dose: 15.0 mg/kg/injection, schedule: Q01DX Z (ip), vehicle: saline) was 131 % of control. The T/C (dose: 30.0 mg/kg/injection, schedule: Q01DX009 (ip), vehicle: saline) was 131 % of control, the T/C (dose: 60.0 mg/kg/injection, schedule: Q01DX Z (ip), vehicle: carboxymethylcellulose (CMC)) was 146 % of control and the T/C (dose: 120.0 mg/kg/injection, schedule: Q01DX009 (ip), vehicle: saline) was 134 % of control. For the same compound, the survivor count (dose: 120.0 mg/kg/injection, schedule: Q01DX Z (ip), vehicle: carboxymethylcellulose (CMC)) was 3 of 6.
In the case of `O=C(CC1CCCCN1)CC1CCCCN1` (stereo not given), the survivor count [1] is reported as 2 of 6.
For `N/N=C1\c2ccccc2-c2cc([N+](=O)[O-])ccc21`, the survivor count (dose: 400.0 mg/kg/injection, schedule: Q01DX001 (ip), vehicle: carboxymethylcellulose (CMC)) was 0 of 4.
`C=C(NC(=O)C(=C)NC(=O)c1csc(C2=NC3c4csc(n4)C4NC(=O)c5csc(n5)C(C(C)(O)C(C)O)NC(=O)C5CSC(=N5)/C(=C/C)NC(=O)C(C(C)O)NC(=O)c5csc(n5)C3(CC2)NC(=O)C(C)NC(=O)C(=C)NC(=O)C(=C)NC(=O)C(C(C)C)NC2C=Cc3c(C(C)O)cc(nc3C2O)C(=O)OC4C)n1)C(N)=O` (stereo not given) was tested, and the T/C (dose: 12.5 mg/kg/injection, schedule: Q01DX009 (ip), vehicle: saline) was 127 % of control, the T/C (dose: 25.0 mg/kg/injection, schedule: Q01DX009 (ip), vehicle: saline) was 135 % of control and the T/C (dose: 50.0 mg/kg/injection, schedule: Q01DX009 (ip), vehicle: saline) was 132 % of control. The T/C (dose: 100.0 mg/kg/injection, schedule: Q01DX009 (ip), vehicle: saline) was 132 % of control.
`C=C(C)C1CCC2(C(=O)OC)CCC3(C)C(CCC4C5(C)CCC(OC6CCCCO6)C(C)(C)C5CCC43C)C12` (stereo not given) was tested, and the survivor count (dose: 50.0 mg/kg/injection, schedule: Q04DX002 (ip), vehicle: saline with Tween-80) was 3 of 3.
`CCCCN(CCCC)CCCOc1cc(C)ccc1C(C)C` was tested, and the survivor count (dose: 50.0 mg/kg/injection, schedule: Q04DX003 (ip), vehicle: saline) was 3 of 6, the survivor count [2] was 2 of 6 and the survivor count [3] was 0 of 6. For the same compound, the survivor count [1] was 0 of 6.
`CN(C)CC/C=C1\c2ccccc2CCSc2ccccc21` was tested, and the survivor count [4] was 0 of 6 and the survivor count [5] was 0 of 6.
For `O=C(Nc1ccc(C2=NCCCN2)cc1)c1ccc(C(=O)Nc2ccc(C3=NCCCN3)cc2)nc1`, the survivor count (dose: 1.5 mg/kg/injection, schedule: Q01DX Z (ip), vehicle: water) was 0 of 6, the survivor count (dose: 3.0 mg/kg/injection, schedule: Q01DX Z (ip), vehicle: water) was 2 of 6 and the survivor count (dose: 6.0 mg/kg/injection, schedule: Q01DX Z (ip), vehicle: water) was 2 of 6. The survivor count (dose: 12.0 mg/kg/injection, schedule: Q01DX Z (ip), vehicle: water) was 0 of 6, the T/C (dose: 15.0 mg/kg/injection, schedule: Q01DX001 (ip), vehicle: water) was 131 % of control [4 of 6 alive] and the survivor count (dose: 30.0 mg/kg/injection, schedule: Q01DX001 (ip), vehicle: water) was 0 of 6. For the same compound, the survivor count (dose: 60.0 mg/kg/injection, schedule: Q01DX001 (ip), vehicle: water) was 0 of 6.
For `CCCCCCCCCCCC(=O)[O][Sn]([CH2]CCC)([CH2]CCC)[O]C(=O)CCCCCCCCCCC`, the survivor count (dose: 25.0 mg/kg/injection, schedule: Q04DX003 (ip), vehicle: saline with Tween-80) was 1 of 3, the survivor count (dose: 50.0 mg/kg/injection, schedule: Q04DX003 (ip), vehicle: saline with Tween-80) was 0 of 3 and the survivor count [6] was 0 of 3. The survivor count [7] was 0 of 3 and the survivor count [8] was 0 of 3.
`Cn1c(=O)c2[nH]c(C3CCCCCC3)nc2n(C)c1=O` was tested, and the survivor count [9] was 1 of 4.
For `CC1(C)SCC(C(=O)N2CCCC2C(=O)OC2CCCCC2)N1C=O` (stereo not given), the survivor count [3] was 3 of 4.
With `N#Cc1cc2c3ccccc3ncc2c2ccccc12` the survivor count (dose: 100.0 mg/kg/injection, schedule: Q01DX009 (ip), vehicle: Klucel (hydroxypropylcellulose) (HPC)) was 6 of 6 and the survivor count (dose: 400.0 mg/kg/injection, schedule: Q01DX009 (ip), vehicle: Klucel (hydroxypropylcellulose) (HPC)) was 5 of 6.
In the case of `CC(=O)Nc1ccc(N)cc1N`, the survivor count [3] is reported as 3 of 3.
For `OC/C=C\C1(O)CCCCC1`, the survivor count [10] was 0 of 6.
For `COc1ccc(OC)c(/C=C(/C)[N+](=O)[O-])c1`, the survivor count [5] was 1 of 6.
For `COc1cc([N+](C)(C)C)nc(OC)n1`, the survivor count (dose: 75.0 mg/kg/injection, schedule: Q01DX Z (ip), vehicle: saline) was 2 of 6.
`COC1CC2C(NC(C)=O)CCc3cc(C)c(C)c(C)c3C2CCC1O.[Cl][Zn][Cl]` (stereo not given) was tested, and the survivor count (dose: 75.0 mg/kg/injection, schedule: Q01DX001 (ip), vehicle: acetone) was 0 of 6, the survivor count [11] was 1 of 6 and the survivor count [12] was 0 of 6.
With `O=S(=O)(NO)c1ccc(Cl)cc1` the survivor count [1] was 5 of 6.
With `CCSCN1CCN(CSCC)CC1` the survivor count [9] was 0 of 6.
For `O=C(NO)c1ccccc1.O=C(NO)c1ccccc1.O=C(NO)c1ccccc1.[Fe]`, the survivor count (dose: 200.0 mg/kg/injection, schedule: Q04DX003 (ip), vehicle: DMSO) was 0 of 6 and the survivor count (dose: 400.0 mg/kg/injection, schedule: Q04DX003 (ip), vehicle: DMSO) was 0 of 6.
In the case of `[Cu+2].[NH-]c1ccccc1C(=O)O.[NH-]c1ccccc1C(=O)O`, the survivor count [6] is reported as 3 of 6, the survivor count [7] is reported as 1 of 6 and the survivor count [8] is reported as 0 of 6.
With `c1ccc(N=P(c2ccccc2)(c2ccccc2)c2ccccc2)cc1` the survivor count [9] was 1 of 4.
With `O=P(Cc1ccccc1)(Cc1ccccc1)c1ccccc1` the survivor count [4] was 6 of 6 and the survivor count [5] was 6 of 6.
In the case of `Cc1ccc(NP(Br)(c2ccccc2)(c2ccccc2)c2ccccc2)cc1`, the survivor count [11] is reported as 1 of 6 and the survivor count [12] is reported as 0 of 6.
In the case of `NC(=O)c1c(N)n(C2OC(CO)C(O)C2O)c2ncnc(N)c12` (stereo not given), the T/C (dose: 60.0 mg/kg/injection, schedule: Q01DX005 (ip), vehicle: saline) is reported as 144 % of control, the T/C (dose: 100.0 mg/kg/injection, schedule: Q01DX005 (ip), vehicle: saline) is reported as 125 and 130 % of control [5 of 6 alive] and the T/C (dose: 120.0 mg/kg/injection, schedule: Q01DX005 (ip), vehicle: saline) is reported as 130 % of control [5 of 6 alive]. The survivor count (dose: 200.0 mg/kg/injection, schedule: Q01DX005 (ip), vehicle: saline) was 3 of 6.
In the case of `CC1CC(=O)NN1C(O)c1ccc2c(c1)OCO2` (stereo not given), the survivor count (dose: 400.0 mg/kg/injection, schedule: Q04DX002 (ip), vehicle: Klucel (hydroxypropylcellulose) (HPC)) is reported as 3 of 3.
`[CH3][Sb]1([Cl])[CH2]CC[CH2]1` was tested, and the survivor count [8] was 0 of 3 and the survivor count [1] was 0 of 3.
In the case of `CCOP(=O)(NC=S)OCC`, the survivor count (dose: 150.0 mg/kg/injection, schedule: Q01DX001 (ip), vehicle: saline) is reported as 2 of 6 and the survivor count [10] is reported as 0 of 6.
In the case of `Cc1ccc(N2C(=O)C=CC2=O)cc1`, the survivor count [2] is reported as 0 of 6, the survivor count [3] is reported as 1 of 6 and the survivor count [1] is reported as 0 of 6.
With `Cc1ccc(C(=O)NN2C(N)=NC(N)=NC2(C)C)cc1` the survivor count (dose: 400.0 mg/kg/injection, schedule: Q01DX009 (ip), vehicle: saline sonified) was 0 of 6.
`Fc1ccc(C(Cl)Cl)cc1` was tested, and the survivor count [3] was 6 of 6 and the survivor count (dose: 400.0 mg/kg/injection, schedule: Q01DX009 (ip), vehicle: saline) was 5 of 6.
